Here are results for one sequence from paper PMC8384837.

Common to all, as to settings: yeast three-hybrid, YBZ-1, SC-Leu-His + 0.5 mM 3-AT, 4 days
Assay [1] has as its target T1, PUM1 PUF domain R3-FCR C935F + R936C + Q939R (UniProt Q14671).
T1 sequence: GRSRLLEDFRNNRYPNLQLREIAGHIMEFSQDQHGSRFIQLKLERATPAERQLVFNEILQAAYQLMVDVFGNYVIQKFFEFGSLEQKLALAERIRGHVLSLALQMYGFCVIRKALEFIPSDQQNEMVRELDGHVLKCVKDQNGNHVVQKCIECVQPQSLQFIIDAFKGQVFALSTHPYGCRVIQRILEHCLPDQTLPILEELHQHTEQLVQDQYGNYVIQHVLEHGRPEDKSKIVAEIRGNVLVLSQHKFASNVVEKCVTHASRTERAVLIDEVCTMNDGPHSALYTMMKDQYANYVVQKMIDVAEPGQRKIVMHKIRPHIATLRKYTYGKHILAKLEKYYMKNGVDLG

In assay [2] the target is T2, PUM1 PUF domain R3-FRT C935F + Q939T (UniProt Q14671).
T2 sequence: T1 sequence with C109R, R112T

Assay [3] concerns the target T3, PUM1 PUF domain R3-FSK C935F + R936S + Q939K (UniProt Q14671).
T3 sequence: T1 sequence with C109S, R112K

Assay [4] concerns the target T4, PUM1 PUF domain R3-FSR C935F + R936S + Q939R (UniProt Q14671).
T4 sequence: T1 sequence with C109S

In assay [5] the target is T5, PUM1 PUF domain R3-HRR C935H + Q939R (UniProt Q14671).
T5 sequence: T1 sequence with F108H, C109R

Assay [6] addresses T6, PUM1 PUF domain R3-LCR C935L + R936C + Q939R (UniProt Q14671).
T6 sequence: T1 sequence with F108L

The target in assay [7] is T7, PUM1 PUF domain R3-LRA C935L + Q939A (UniProt Q14671).
T7 sequence: T1 sequence with F108L, C109R, R112A

The target of assay [8] is T8, PUM1 PUF domain R3-LSS C935L + R936S + Q939S (UniProt Q14671).
T8 sequence: T1 sequence with F108L, C109S, R112S

For assay [9], the target named is T9, PUM1 PUF domain R3-LST C935L + R936S + Q939T (UniProt Q14671).
T9 sequence: T1 sequence with F108L, C109S, R112T

For assay [10], the target named is T10, PUM1 PUF domain R3-MSR C935M + R936S + Q939R (UniProt Q14671).
T10 sequence: T1 sequence with F108M, C109S

The target in assay [11] is T11, PUM1 PUF domain R3-QPG C935Q + R936P + Q939G (UniProt Q14671).
T11 sequence: T1 sequence with F108Q, C109P, R112G

For assay [12], the target named is T12, PUM1 PUF domain R3-QPS C935Q + R936P + Q939S (UniProt Q14671).
T12 sequence: T1 sequence with F108Q, C109P, R112S

The target in assay [13] is T13, PUM1 PUF domain R3-RAA C935R + R936A + Q939A (UniProt Q14671).
T13 sequence: T1 sequence with F108R, C109A, R112A

Assay [14] deals with T14, PUM1 PUF domain R3-RAC C935R + R936A + Q939C (UniProt Q14671).
T14 sequence: T1 sequence with F108R, C109A, R112C

Assay [15] has as its target T15, PUM1 PUF domain R3-RAV C935R + R936A + Q939V (UniProt Q14671).
T15 sequence: T1 sequence with F108R, C109A, R112V

Assay [16] has as its target T16, PUM1 PUF domain R3-RSC C935R + R936S + Q939C (UniProt Q14671).
T16 sequence: T1 sequence with F108R, C109S, R112C

The target of assay [17] is T17, PUM1 PUF domain R3-RTI C935R + R936T + Q939I (UniProt Q14671).
T17 sequence: T1 sequence with F108R, C109T, R112I

In assay [18] the target is T18, PUM1 PUF domain R3-WCG C935W + R936C + Q939G (UniProt Q14671).
T18 sequence: T1 sequence with F108W, R112G

Assay [19] concerns the target T19, PUM1 PUF domain R3-WCL C935W + R936C + Q939L (UniProt Q14671).
T19 sequence: T1 sequence with F108W, R112L

For assay [20], the target named is T20, PUM1 PUF domain R3-WCS C935W + R936C + Q939S (UniProt Q14671).
T20 sequence: T1 sequence with F108W, R112S

Where a chain is given by its changes, count along the chain named. This is one part of the list. At the low end of the ranking, values are background and their order means little.

As for “GGCUAGAACUAGUGGAUCCCCCGGCGCCCGGCGGCUCGAGCCCGGGUAAGUGUAAAUAGUCUGCAUGCCGCCGGGCGCCAUGCCUGCAGGUCGACUCUAGAAAACAUG”, the binding signal (log2 enrichment (interaction score)) was -3.22 in assay [1]; -4.12 in assay [2]; -4.28 in assay [3]; -2.84 in [4]; -3.56 in [5]; -2.51 in assay [6]. In addition, the binding signal (log2 enrichment (interaction score)) in assay [7] was -2.86; in [8], -4.17; in assay [9], -3.93; in assay [10], -3.13; in [11], -3.25; in assay [12], -3.71. Further, the binding signal (log2 enrichment (interaction score)) in assay [13] is -3.81; in assay [14], -3.58; in assay [15], -2.61; in assay [16], -3.38; in [17], -2.87; in [18] it was -3.12. The values for the binding signal (log2 enrichment (interaction score)) in [19] and in [20] were -3.2 and -2.9, respectively.
